Like-named read-outs stand apart in the source and are kept apart here. Structures were worked out from names or drawings and are uncertain.
Molecular target: TRPA1 channel (Homo sapiens, UniProt O75762)
Experiment: Patch clamp experiments (perforated patch, AITC-activated TRPA1 current)
Settings: HEK293/TREx cells expressing TRPA1, current activated by 5 μM AITC
Text: Patch clamp experiments permit the detection of currents through the TRPA1 channel in the cell line described above. To permit recording of current at a stable level and prevent the “rundown” observed by other labs, it is necessary to use the perforated patch technique, which prevents dialysis of the cytoplasm with the pipette solution. In normal whole-cell patch clamp recordings, a glass electrode is brought into contact with a single cell and a high-resistance (gigaohm) seal is established with the cell membrane. The membrane is then ruptured to achieve the whole-cell configuration, permitting control of the voltage of the cell membrane and measurement of currents flowing across the membrane using the amplifier attached to the electrode and resulting in the replacement of cytoplasm with the pipette solution. In contrast, in the perforated patch mode, an antibiotic, amphotericin, is present in the pipette solution and diffuses into contact with the cell after the seal is achieved, over the course of several minutes. The amphotericin forms ion-permeable pores in the membrane under the pipette, permitting passage of some ions but maintaining most native cytosolic components. A perfusion system permits control of the extracellular solution, including the addition of blockers and activators of the current. The current can be activated by addition of 5 μM AITC to the solution.
TRPA1 cells were induced 20-48 hours, removed from growth plates, and replated at low density (to attain good single-cell physical separation) on glass coverslips for measurement. In some cases, cells were grown in low density overnight on glass coverslips. Patch clamp recordings were made in the whole-cell mode with a holding potential of −40 mV. Every 5 seconds, a voltage ramp was applied from −120 to +100 mV, 400 ms in duration. Currents elicited were quantified at −80 mV and +80 mV. The internal solution consisted of 140 mM cesium aspartate, 10 mM EGTA, 2.2 mM CaCl2, 2.08 mM MgCl2 and 10 mM HEPES, pH 7.2, with 50 nM calculated free Ca^2+ and 60 mg/ml amphotericin added immediately prior to experiments. The external solution consisted of 150 mM NaCl, 4.5 mM KCl, 3 mM MgCl2, 10 mM HEPES, 10 mM glutamine, 1 mM EGTA, pH 7.4. Upon addition of AITC, TRPA1 current was induced only in TRPA1-expressing cells and not in parental HEK293 TREx cells. Removal of the AITC stimulus causes most of the current to go away. Potential blockers were tested for ability to block both inward and outward currents in the continued presence of AITC.
IC50 of compounds was estimated by testing each compound at 5 μM and 500 nM. […] IC50 for compounds between 500 nM and 5 μM was similarly estimated. Compounds blocking 50% or more at 500 nM are retested at multiple concentrations, and the % block at each is fitted by standard equations to determine IC50 accurately using a 5-6 point concentration/response experiment. Except where indicated, the IC50 values presented in Tables 1, 2, 3, and 4 were obtained from patch clamp experiments.

By UniProt entry, the sequences of proteins in these tests, tags left out.
UniProt O75762, whole entry: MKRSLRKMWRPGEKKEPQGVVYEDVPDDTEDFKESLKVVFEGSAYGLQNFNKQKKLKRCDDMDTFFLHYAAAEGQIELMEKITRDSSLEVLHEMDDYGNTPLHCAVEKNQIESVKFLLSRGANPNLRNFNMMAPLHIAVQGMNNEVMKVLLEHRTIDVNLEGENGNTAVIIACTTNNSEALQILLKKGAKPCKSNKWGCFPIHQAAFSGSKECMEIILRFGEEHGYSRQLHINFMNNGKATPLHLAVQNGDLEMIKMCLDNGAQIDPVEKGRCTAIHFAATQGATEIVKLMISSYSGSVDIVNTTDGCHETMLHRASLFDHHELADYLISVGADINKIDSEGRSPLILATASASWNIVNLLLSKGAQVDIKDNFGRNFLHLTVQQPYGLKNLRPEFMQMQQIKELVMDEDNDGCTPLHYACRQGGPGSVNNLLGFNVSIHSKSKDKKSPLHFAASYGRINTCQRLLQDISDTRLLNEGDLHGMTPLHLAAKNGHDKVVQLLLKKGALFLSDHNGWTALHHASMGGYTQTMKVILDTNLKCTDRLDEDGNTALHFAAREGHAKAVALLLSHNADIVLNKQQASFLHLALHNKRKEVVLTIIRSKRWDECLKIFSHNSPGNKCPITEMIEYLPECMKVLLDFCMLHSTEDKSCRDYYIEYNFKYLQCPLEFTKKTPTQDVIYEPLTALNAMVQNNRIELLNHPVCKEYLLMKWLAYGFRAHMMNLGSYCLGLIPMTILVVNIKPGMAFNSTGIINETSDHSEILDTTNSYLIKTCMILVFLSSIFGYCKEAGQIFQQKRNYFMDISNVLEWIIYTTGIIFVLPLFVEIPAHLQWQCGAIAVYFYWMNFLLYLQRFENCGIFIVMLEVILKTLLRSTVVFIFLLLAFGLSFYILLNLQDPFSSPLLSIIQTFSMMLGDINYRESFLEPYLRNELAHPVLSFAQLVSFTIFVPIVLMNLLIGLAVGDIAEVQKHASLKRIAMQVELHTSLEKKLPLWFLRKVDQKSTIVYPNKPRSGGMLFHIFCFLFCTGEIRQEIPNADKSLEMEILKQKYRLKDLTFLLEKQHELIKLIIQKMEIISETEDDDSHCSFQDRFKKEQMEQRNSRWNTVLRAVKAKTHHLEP

[1] = read-out: activity as measured in the patch clamp assay (IC50), Table 1, Table 1 compounds
[2] = read-out: activity as measured in the patch clamp assay (IC50), Table 3, Table 3 compounds

Cn1c(=O)c2c(ncn2CC(=O)Nc2nc(-c3ccc(C(C)(C)C)cc3)cs2)n(C)c1=O
IC50 [1]: 1000 to 10000 nM | IC50 [2]: < 1000 nM

Cn1c(=O)c2c(ncn2CC(=O)Nc2nnc(-c3ccc(Cl)cc3)s2)n(C)c1=O
IC50 [2]: < 1000 nM

Cc1ccc(-c2csc(NC(=O)Cn3cnc4c3c(=O)n(C)c(=O)n4C)n2)o1
IC50 [2]: 1000 to 10000 nM

Cc1ccc(NC(=O)Cn2c(Cl)nc3c2c(=O)n(C)c(=O)n3C)cc1
IC50 [2]: < 1000 nM

CCOc1ccc(-c2csc(NC(=O)Cn3cnc4c3c(=O)n(C)c(=O)n4C)n2)cc1
IC50 [2]: < 1000 nM

Cn1c(=O)c2c(ncn2CC(=O)Nc2nc(-c3ccc4ccccc4c3)cs2)n(C)c1=O
IC50 [2]: < 1000 nM

Cc1ccc(-c2csc(NC(=O)Cn3cnc4c3c(=O)n(C)c(=O)n4C)n2)cc1
IC50 [2]: < 1000 nM

CC(C)c1ccc(-c2csc(NC(=O)Cn3cnc4c3c(=O)n(C)c(=O)n4C)n2)cc1
IC50 [1]: > 10000 nM | IC50 [2]: < 1000 nM

Cn1c(=O)c2c(ncn2CC(=O)Nc2nc(-c3ccccn3)cs2)n(C)c1=O
IC50 [2]: 1000 to 10000 nM

Cn1c(=O)c2c(ncn2CC(=O)Nc2nc(-c3ccc(Cl)cc3)cs2)n(C)c1=O
IC50 [2]: < 1000 nM

Cn1c(=O)c2c(ncn2CC(=O)Nc2nc(-c3ccccc3)c(-c3ccccc3)s2)n(C)c1=O
IC50 [1]: 1000 to 10000 nM | IC50 [2]: < 1000 nM

Cn1c(=O)c2c(ncn2CC(=O)Nc2nc(-c3ccc(C4CCCCC4)cc3)cs2)n(C)c1=O
IC50 [2]: < 1000 nM

Cn1c(=O)c2c(ncn2CC(=O)Nc2nc(-c3ccc(F)c(F)c3)cs2)n(C)c1=O
IC50 [2]: < 1000 nM

From patent US20120046305A1
